Record: PubChem BioAssay AID602196 (INSERM, 2012)
Test: 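Knock-downs that protect lung cancer cells from cisplatin or sensitise them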. Cell system: human A549 lung cancer cells. Reagents: siRNA pair against human genes. Time to read-out: 48 h transfection before cisplatin; time from cisplatin to read-out not stated. Conditions: cisplatin at a dose killing half of control-siRNA cells; exact dose and duration not given. Measured: 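Shift in cisplatin death relative to control siRNA, from -50 (all cells die) to +50 (no cells die); siRNAs harmful on their own scored 0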. Scale: two-siRNA summed score (-2 to +2): higher = both siRNAs protect from cisplatin killing; -2 means both sensitise. Rule for the call: 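siRNAs harmful alone (LDH or WST-1) get 0; others get +1 for less and -1 for more cisplatin killing; genes are active when the two siRNAs give the same sign, summing to ±2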. Meaning of the calls: active = both siRNAs shift cisplatin killing the same way; inactive = no consistent shift, or siRNA harmful alone.
This is an unselected part of about 23,000 reagents. 455 of them (2%) were called active. 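Active includes both protection and sensitisation; some change values fall well beyond the stated -50 to +50 range.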 Further read-outs or replicates are left out here. No sequences are given here. The record does not give: the amount of reagent.

NOL12
- two-siRNA summed score (-2 to +2): -1
- activity call: inactive

YLPM1
- two-siRNA summed score (-2 to +2): 0
- activity call: inactive

TUBG2
- two-siRNA summed score (-2 to +2): 0
- activity call: inactive

LOC390859
- two-siRNA summed score (-2 to +2): 0
- activity call: inactive

LAMA4
- two-siRNA summed score (-2 to +2): -1
- activity call: inactive

LOC400924
- two-siRNA summed score (-2 to +2): 0
- activity call: inactive

NACA
- two-siRNA summed score (-2 to +2): -2
- activity call: active

TIPRL
- two-siRNA summed score (-2 to +2): 0
- activity call: inactive

ALKBH2
- two-siRNA summed score (-2 to +2): -1
- activity call: inactive

OXSR1
- two-siRNA summed score (-2 to +2): 0
- activity call: inactive

LOC401018
- two-siRNA summed score (-2 to +2): 0
- activity call: inactive

LOC391126
- two-siRNA summed score (-2 to +2): 0
- activity call: inactive

ZNF773
- two-siRNA summed score (-2 to +2): 1
- activity call: inactive

STXBP4
- two-siRNA summed score (-2 to +2): 0
- activity call: inactive

A2ML1
- two-siRNA summed score (-2 to +2): 0
- activity call: inactive

LOC400172
- two-siRNA summed score (-2 to +2): 0
- activity call: inactive

CHI3L2
- two-siRNA summed score (-2 to +2): 0
- activity call: inactive

DEPTOR
- two-siRNA summed score (-2 to +2): 0
- activity call: inactive

UBA1
- two-siRNA summed score (-2 to +2): 0
- activity call: inactive

IGF2-AS
- two-siRNA summed score (-2 to +2): 0
- activity call: inactive

P2RX2
- two-siRNA summed score (-2 to +2): -1
- activity call: inactive

ASTN2
- two-siRNA summed score (-2 to +2): 0
- activity call: inactive

DENND10P1
- two-siRNA summed score (-2 to +2): 0
- activity call: inactive

SMG9
- two-siRNA summed score (-2 to +2): 1
- activity call: inactive

OR1N1
- two-siRNA summed score (-2 to +2): 0
- activity call: inactive

LRRC15
- two-siRNA summed score (-2 to +2): 0
- activity call: inactive

HTRA2
- two-siRNA summed score (-2 to +2): 0
- activity call: inactive

ZNF702P
- two-siRNA summed score (-2 to +2): 0
- activity call: inactive

LOC345430
- two-siRNA summed score (-2 to +2): 0
- activity call: inactive

NPIPB11
- two-siRNA summed score (-2 to +2): -1
- activity call: inactive

NPAS4
- two-siRNA summed score (-2 to +2): -1
- activity call: inactive

LYZ
- two-siRNA summed score (-2 to +2): 0
- activity call: inactive

NOP14
- two-siRNA summed score (-2 to +2): 0
- activity call: inactive

MDM4
- two-siRNA summed score (-2 to +2): 0
- activity call: inactive

LOC401640
- two-siRNA summed score (-2 to +2): 1
- activity call: inactive

FAM226A
- two-siRNA summed score (-2 to +2): 1
- activity call: inactive

MB
- two-siRNA summed score (-2 to +2): -1
- activity call: inactive

MYOF
- two-siRNA summed score (-2 to +2): 0
- activity call: inactive

LOC389230
- two-siRNA summed score (-2 to +2): 0
- activity call: inactive

LRIT3
- two-siRNA summed score (-2 to +2): -1
- activity call: inactive
